Results published in patent US20240277861A1, “ANTI-HEPATITIS B VIRUS AGENT TARGETING HOST FACTOR LIPG” (PUROTECH BIO, INC., priority 2021, published 2024).
Results are given in words; binding and its absence hold for the method and conditions named. In cells and extracts the contact can be indirect. Some results given as binding are weak or reduced against the parent protein; the word gives no strength. Tags and fused reporters may be left off the sequences shown.

Molecular target: T1, LIPG-BioFLAGHis (Klebsiella pneumoniae) (UniProt P13187)
T1 sequence (chain, biotinylated on the biotinylation sequence (Bio-tag)): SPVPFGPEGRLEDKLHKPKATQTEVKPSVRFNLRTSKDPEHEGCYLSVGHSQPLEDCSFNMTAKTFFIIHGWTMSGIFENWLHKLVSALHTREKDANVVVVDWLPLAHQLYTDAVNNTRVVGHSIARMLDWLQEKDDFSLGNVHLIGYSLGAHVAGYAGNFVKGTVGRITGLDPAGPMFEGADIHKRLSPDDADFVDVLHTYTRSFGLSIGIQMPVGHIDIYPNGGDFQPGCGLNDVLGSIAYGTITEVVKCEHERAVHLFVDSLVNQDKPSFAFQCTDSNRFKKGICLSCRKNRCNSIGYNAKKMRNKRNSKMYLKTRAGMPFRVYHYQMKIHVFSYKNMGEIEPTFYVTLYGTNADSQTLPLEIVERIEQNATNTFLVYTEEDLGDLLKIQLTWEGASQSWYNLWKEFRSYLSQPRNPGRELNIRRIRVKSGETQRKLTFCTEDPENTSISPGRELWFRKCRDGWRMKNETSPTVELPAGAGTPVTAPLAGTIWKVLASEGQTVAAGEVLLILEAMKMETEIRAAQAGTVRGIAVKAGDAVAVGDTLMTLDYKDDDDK
Experiment: pull-down: biotinylated full-length LIPG on streptavidin beads, culture supernatant containing expressed N4BP1, T7-tag HRP western blot, against no bait

- binding: binds
B1: N4BP1 (NEDD4 Binding Protein 1) (enzyme)
chain: MAARAVLDEFTAPAEKAELLEQSRGRIEGLFGVSLAVLGALGAEEPLPARIWLQLCGAQEAVHSAKEYIKGICEPELEERECYPKDMHCIFVGAESLFLKSLIQDTCADLCILDIGLLGIRGSAEAVVMARSHIQQFVKLFENKENLPSSQKESEVKREFKQFVEAHADNYTMDLLILPTSLKKELLTLTQGEENLFETGDDEVIEMRDSQQTEFTQNAATGLNISRDETVLQEEARNKAGTPVSELTKQMDTVLSSSPDVLFDPINGLTPDEEALSNERICQKRRFSDSEERHTKKQFSLENVQEGEILHDAKTLAGNVIADLSDSSADSENLSPDIKETTEEMEYNILVNFFKTMGYSQEIVEKVIKVYGPSTEPLLLLEEIEKENKRFQEDREFSAGTVYPETNKTKNKGVYSSTNELTTDSTPKKTQAHTQQNMVEKFSQLPFKVEAKPCTSNCRINTFRTVPIEQKHEVWGSNQNYICNTDPETDGLSPSVASPSPKEVNFVSRGASSHQPRVPLFPENGLHQQPEPLLPNNMKSACEKRLGCCSSPHSKPNCSTLSPPMPLPQLLPSVTDARSAGPSDHIDSSVTGVQRFRDTLKIPYKLELKNEPGRTDLKHIVIDGSNVAITHGLKKFFSCRGIAIAVEYFWKLGNRNITVFVPQWRTRRDPNVTEQHFLTQLQELGILSLTPARMVFGERIASHDDRFLLHLADKTGGIIVTNDNFREFVNESVSWREIITKRLLQYTFVGDIFMVPDDPLGRSGPRLEEFLQKEVCLRDMQPLLSALPNVGMFDPSFRVPGTQAASTSHQPPTRIQGAPSSHWLPQQPHFPLLPALPSLQQNLPMPAQRSSAETNELREALLKIFPDSEQRLKIDQILVAHPYMKDLNALSAMVLD
